US20210122795A1 (CITY OF HOPE, published 2021)
Results are given in words; binding and its absence hold for the method and conditions named. Some entries that bind do so weakly or less than the wild type. For part of these data: Sequences can lack the tags named with a protein.

Sequences of proteins named here, by UniProt entry; tags and fusion partners are left off. Residues count along the entry.
UniProt P09793, residues 36-223: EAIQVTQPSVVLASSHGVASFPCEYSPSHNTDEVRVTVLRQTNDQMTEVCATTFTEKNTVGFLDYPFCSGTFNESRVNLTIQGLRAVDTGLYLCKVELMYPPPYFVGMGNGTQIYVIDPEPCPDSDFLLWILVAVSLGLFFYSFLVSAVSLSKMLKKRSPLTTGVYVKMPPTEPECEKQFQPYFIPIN
UniProt P16410, residues 36-161: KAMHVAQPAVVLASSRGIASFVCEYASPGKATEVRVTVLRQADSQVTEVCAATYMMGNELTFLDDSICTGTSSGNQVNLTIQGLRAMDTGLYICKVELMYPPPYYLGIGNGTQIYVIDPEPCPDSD

Key:
[1] = biological target: mLcn2-Fc (unmodified, without N-terminal mask) (human); test: phage ELISA, 18 min substrate incubation; competitor CTLA4-Fc
[2] = biological target: mLcn2-Fc (unmodified, without N-terminal mask) (human); test: phage ELISA on immobilized mLcn2-Fc; Complex = Lcn2-Fc pre-complexed with CTLA4-Fc, Blank = PBS
[3] = biological target: CTLA-4 on murine regulatory T-cells (splenocytes of Foxp3gfp/KI DBA/2 mice) (mouse) (UniProt P09793); test: flow cytometry; Alexa Fluor 647-labeled construct on murine regulatory T-cells (GFP+), four experiments on two spleens
[4] = biological target: Monomeric extracellular CTLA-4 (Homo sapiens (Human)) (UniProt P16410); test: SPR, analyte over monomeric extracellular CTLA-4 immobilized at low density on a CM5 chip, baseline subtracted
[5] = biological target: CTLA-4 on murine regulatory T-cells (splenocytes of Foxp3gfp/KI DBA/2 mice) (mouse) (UniProt P09793); test: flow cytometry; AF647-labeled construct on gated regulatory T cells of mouse splenocytes
[6] = biological target: human CTLA4-Fc transiently expressed by Tni insect cells (human) (UniProt P16410); test: flow cytometry, AF647-labeled construct on Tni insect cells induced to express human CTLA4-Fc; uninfected cells as negative control
[7] = biological target: CTLA-4 on murine regulatory T-cells (splenocytes of Foxp3gfp/KI DBA/2 mice) (mouse) (UniProt P09793); test: flow cytometry, AF647-labeled construct on splenocytes of Foxp3gfp/KI DBA/2 mice, gated on DAPI-negative GFP+ regulatory T-cells
[8] = biological target: human CTLA4-Fc transiently expressed by Tni insect cells (human) (UniProt P16410); test: flow cytometry; Alexa Fluor-647 conjugate on Tni insect cells expressing human CTLA4-Fc
[9] = biological target: CTLA-4 on murine regulatory T-cells (splenocytes of Foxp3gfp/KI DBA/2 mice) (mouse) (UniProt P09793); test: flow cytometry, AF647-labeled construct on splenocytes of Foxp3gfp/KI DBA/2 mice, gated on regulatory T cells
[10] = biological target: Monomeric extracellular CTLA-4 (Homo sapiens (Human)) (UniProt P16410); test: SPR, analyte over immobilized monomeric CTLA-4
[11] = biological target: Monomeric extracellular CTLA-4 (Homo sapiens (Human)) (UniProt P16410); test: SPR; monomeric CTLA-4 chemically tethered to the chip
[12] = biological target: mLcn2-Fc (unmodified, without N-terminal mask) (human); test: phage ELISA on immobilized mLcn2-Fc, 18 min substrate incubation; Complex = Lcn2-Fc pre-complexed with CTLA4-Fc, Blank = PBS
[13] = biological target: mLcn2-Fc (unmodified, without N-terminal mask) (human); test: phage ELISA on immobilized mLcn2-Fc, triplicates; wells with mLcn2-Fc pre-complexed with CTLA-4-Fc and PBS wells as controls
[14] = biological target: mLcn2-Fc (unmodified, without N-terminal mask) (human); test: phage ELISA, triplicates; competitor CTLA-4-Fc

Measured: binding

YLELMHS [Phage clone 8, surface-bound peptide YLELMHS]
binds: [1] | [2]

B1: mLcn2-Fc (unmodified, without N-terminal mask) (Fc fusion)
chain: QDSTSDLIPAPPLSKVPLQQNFQDNQFHGKWYVVGLAGNRILRDDQHPMNMYATIYELKEDKSYNVTSVISSHKKCEYTIATFVPGSQPGEFTLGNIKSYGDKTSYLVRVVSTDYNQYAVVFFKLAEDNAEFFAITIYGRTKELASELKENFIRFSKSLGLPENHIVFPVPIDQCIDG
notes: also called dimeric mLCN2-Fc; unmodified mLcn2-Fc; not shown: flexible linker between mLcn2 and Fc; human IgG1 Fc domain
not listed: [1] | [2] | [12] | [13] | [14]
binds: all other assays above

B2: Unmasked mLcn2-Fc (masked mLcn2-Fc treated with MMP9) (Fc fusion, not shown: small tags and cut ends; a dimerising Fc or GST)
chain: QDSTSDLIPAPPLSKVPLQQNFQDNQFHGKWYVVGLAGNRILRDDQHPMNMYATIYELKEDKSYNVTSVISSHKKCEYTIATFVPGSQPGEFTLGNIKSYGDKTSYLVRVVSTDYNQYAVVFFKLAEDNAEFFAITIYGRTKELASELKENFIRFSKSLGLPENHIVFPVPIDQCIDG
not listed: [1] | [2] | [12] | [13] | [14]
binds: all other assays above

YGLGFNF [Phage clone 1, surface-bound peptide YGLGFNF]
binds: [1] | [12]

EKWFRFM [Phage clone 6, surface-bound peptide EKWFRFM]
binds: [1] | [12]

RIDETLQ [Phage clone 2, surface-bound peptide RIDETLQ]
binds: [1] | [12]

FTPWPEA [Phage clone 3, surface-bound peptide FTPWPEA]
binds: [1] | [2]

WPEWDLW [Phage clone 4, surface-bound peptide WPEWDLW]
binds: [1] | [2]

WSPLPFM [Phage clone 16, surface-bound peptide WSPLPFM]
binds: [13] | [14] | [1] | [2]

SVLPPFM [Phage clone 12, surface-bound peptide SVLPPFM]
binds: [1] | [2]
